No constants are given. Whether binding was seen depends on the method and setting. In cells and extracts the contact can be indirect. Some results given as binding are weak or reduced against the parent protein; the word gives no strength. For part of these data: Sequences can lack the tags named with a protein.
Columns and labels:
[1] = target: Exogenous wild-type ACLY (FLAG-ACLY) (human) (UniProt P53396); test: co-IP; HEK293T cells, transiently transfected for 48 h; IP lysis buffer; anti‐Flag magnetic beads overnight at 4 °C; western blot
[2] = target: ACLY with a nuclear export sequence (GFP‐ACLY‐NES) (human) (UniProt P53396); test: as above
[3] = target: Exogenous wild-type ACLY (FLAG-ACLY) (human) (UniProt P53396); test: co-IP; NIH3T3 cells, transiently transfected for 48 h; IP lysis buffer; anti‐Flag magnetic beads overnight at 4 °C; western blot
[4] = target: ACLY with a nuclear export sequence (GFP‐ACLY‐NES) (human) (UniProt P53396); test: as above
[5] = target: T1, ATP‐citrate lyase (ACLY), endogenous in mouse embryos (mouse (endogenous in 8-cell embryos)) (UniProt Q91V92); test: proximity ligation; Duolink In Situ PLA on fixed (4% PFA) mouse 8‐cell stage embryos; endogenous proteins
T1 sequence: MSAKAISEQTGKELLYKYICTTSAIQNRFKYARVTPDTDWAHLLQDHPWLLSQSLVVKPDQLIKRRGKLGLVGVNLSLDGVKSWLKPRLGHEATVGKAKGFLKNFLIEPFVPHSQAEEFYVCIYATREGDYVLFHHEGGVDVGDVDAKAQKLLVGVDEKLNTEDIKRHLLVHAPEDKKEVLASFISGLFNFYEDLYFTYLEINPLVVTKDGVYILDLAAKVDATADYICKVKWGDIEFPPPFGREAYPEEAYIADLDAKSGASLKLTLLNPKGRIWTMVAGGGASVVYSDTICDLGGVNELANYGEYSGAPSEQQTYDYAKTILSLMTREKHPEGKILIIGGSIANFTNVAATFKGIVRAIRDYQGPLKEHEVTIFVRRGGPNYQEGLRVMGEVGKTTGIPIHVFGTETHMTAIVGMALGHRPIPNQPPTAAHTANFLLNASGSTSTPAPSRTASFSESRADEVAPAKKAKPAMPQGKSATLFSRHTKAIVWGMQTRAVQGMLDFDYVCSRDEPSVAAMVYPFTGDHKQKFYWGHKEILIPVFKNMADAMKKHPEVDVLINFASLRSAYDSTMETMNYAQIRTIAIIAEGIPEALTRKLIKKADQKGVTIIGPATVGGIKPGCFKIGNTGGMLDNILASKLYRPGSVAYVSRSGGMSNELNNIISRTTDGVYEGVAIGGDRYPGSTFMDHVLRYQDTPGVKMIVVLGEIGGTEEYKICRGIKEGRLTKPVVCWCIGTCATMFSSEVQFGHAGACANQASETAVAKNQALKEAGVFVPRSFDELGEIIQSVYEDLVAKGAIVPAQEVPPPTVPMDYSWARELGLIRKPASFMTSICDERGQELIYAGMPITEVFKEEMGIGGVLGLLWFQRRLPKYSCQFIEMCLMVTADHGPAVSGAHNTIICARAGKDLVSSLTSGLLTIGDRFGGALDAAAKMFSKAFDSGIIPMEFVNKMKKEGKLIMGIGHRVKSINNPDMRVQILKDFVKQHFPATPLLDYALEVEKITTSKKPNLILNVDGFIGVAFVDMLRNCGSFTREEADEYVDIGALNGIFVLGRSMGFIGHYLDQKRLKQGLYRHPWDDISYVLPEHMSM

Amino acid sequences for entries named in this document (tags omitted). A change or cut given only in a name is not applied to a line headed by its entry. Chains listed by the source or under a name are the forms on record and can include a tag or linker.
UniProt P53396: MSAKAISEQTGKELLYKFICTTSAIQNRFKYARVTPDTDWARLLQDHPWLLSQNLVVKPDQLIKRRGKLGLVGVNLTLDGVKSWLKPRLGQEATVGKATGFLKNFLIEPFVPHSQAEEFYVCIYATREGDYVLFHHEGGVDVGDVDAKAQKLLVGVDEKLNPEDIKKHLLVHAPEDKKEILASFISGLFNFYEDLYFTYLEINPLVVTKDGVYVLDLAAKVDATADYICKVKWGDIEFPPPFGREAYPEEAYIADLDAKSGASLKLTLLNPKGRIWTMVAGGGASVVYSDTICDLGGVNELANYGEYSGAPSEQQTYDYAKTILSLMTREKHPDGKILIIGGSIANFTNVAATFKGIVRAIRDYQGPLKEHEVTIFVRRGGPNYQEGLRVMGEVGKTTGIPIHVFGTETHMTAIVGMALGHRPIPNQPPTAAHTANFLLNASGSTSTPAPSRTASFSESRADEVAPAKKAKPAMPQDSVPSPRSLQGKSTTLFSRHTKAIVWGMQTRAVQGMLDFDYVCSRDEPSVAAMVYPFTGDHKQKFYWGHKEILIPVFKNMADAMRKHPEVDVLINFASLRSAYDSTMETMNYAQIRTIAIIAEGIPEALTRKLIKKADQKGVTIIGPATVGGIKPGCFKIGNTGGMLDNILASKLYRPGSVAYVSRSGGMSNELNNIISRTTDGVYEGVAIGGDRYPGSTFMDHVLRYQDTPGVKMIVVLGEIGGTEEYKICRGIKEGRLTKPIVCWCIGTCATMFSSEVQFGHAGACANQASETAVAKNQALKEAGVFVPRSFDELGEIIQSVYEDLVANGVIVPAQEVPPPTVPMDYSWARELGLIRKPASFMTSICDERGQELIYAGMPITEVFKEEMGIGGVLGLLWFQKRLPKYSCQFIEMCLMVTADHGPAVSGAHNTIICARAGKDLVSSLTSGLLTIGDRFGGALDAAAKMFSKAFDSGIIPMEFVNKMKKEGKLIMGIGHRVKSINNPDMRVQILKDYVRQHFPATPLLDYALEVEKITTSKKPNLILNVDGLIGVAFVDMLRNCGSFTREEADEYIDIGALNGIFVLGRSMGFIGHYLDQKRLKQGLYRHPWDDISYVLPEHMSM
ACLY with a nuclear export sequence (GFP‐ACLY‐NES) (P53396, form named): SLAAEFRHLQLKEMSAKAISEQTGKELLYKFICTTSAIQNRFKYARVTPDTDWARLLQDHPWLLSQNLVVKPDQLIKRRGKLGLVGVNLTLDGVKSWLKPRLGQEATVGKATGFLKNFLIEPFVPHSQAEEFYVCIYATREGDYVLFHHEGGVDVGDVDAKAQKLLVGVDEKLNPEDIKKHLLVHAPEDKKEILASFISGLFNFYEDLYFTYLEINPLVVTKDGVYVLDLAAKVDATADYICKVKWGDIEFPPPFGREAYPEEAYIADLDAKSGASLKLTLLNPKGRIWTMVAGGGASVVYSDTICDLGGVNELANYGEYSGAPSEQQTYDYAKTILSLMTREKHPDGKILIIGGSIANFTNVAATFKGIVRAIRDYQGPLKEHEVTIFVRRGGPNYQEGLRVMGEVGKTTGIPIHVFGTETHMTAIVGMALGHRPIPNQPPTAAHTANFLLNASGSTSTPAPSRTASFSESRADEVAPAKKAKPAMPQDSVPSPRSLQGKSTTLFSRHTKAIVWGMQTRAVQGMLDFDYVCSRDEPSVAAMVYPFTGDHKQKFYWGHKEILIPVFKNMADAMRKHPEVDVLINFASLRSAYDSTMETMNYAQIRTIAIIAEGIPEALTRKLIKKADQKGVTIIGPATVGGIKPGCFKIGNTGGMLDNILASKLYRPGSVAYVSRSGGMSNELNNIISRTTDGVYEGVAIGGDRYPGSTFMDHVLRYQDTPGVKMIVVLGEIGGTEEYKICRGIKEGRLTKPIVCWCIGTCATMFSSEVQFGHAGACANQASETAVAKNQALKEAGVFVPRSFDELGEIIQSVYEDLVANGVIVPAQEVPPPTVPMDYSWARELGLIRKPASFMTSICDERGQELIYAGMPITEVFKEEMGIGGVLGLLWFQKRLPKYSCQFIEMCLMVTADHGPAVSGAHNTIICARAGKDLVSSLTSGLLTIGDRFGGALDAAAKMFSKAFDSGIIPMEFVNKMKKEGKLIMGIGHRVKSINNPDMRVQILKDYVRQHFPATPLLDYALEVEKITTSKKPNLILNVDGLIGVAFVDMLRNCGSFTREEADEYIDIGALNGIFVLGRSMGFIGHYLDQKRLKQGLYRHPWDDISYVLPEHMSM
UniProt Q09472: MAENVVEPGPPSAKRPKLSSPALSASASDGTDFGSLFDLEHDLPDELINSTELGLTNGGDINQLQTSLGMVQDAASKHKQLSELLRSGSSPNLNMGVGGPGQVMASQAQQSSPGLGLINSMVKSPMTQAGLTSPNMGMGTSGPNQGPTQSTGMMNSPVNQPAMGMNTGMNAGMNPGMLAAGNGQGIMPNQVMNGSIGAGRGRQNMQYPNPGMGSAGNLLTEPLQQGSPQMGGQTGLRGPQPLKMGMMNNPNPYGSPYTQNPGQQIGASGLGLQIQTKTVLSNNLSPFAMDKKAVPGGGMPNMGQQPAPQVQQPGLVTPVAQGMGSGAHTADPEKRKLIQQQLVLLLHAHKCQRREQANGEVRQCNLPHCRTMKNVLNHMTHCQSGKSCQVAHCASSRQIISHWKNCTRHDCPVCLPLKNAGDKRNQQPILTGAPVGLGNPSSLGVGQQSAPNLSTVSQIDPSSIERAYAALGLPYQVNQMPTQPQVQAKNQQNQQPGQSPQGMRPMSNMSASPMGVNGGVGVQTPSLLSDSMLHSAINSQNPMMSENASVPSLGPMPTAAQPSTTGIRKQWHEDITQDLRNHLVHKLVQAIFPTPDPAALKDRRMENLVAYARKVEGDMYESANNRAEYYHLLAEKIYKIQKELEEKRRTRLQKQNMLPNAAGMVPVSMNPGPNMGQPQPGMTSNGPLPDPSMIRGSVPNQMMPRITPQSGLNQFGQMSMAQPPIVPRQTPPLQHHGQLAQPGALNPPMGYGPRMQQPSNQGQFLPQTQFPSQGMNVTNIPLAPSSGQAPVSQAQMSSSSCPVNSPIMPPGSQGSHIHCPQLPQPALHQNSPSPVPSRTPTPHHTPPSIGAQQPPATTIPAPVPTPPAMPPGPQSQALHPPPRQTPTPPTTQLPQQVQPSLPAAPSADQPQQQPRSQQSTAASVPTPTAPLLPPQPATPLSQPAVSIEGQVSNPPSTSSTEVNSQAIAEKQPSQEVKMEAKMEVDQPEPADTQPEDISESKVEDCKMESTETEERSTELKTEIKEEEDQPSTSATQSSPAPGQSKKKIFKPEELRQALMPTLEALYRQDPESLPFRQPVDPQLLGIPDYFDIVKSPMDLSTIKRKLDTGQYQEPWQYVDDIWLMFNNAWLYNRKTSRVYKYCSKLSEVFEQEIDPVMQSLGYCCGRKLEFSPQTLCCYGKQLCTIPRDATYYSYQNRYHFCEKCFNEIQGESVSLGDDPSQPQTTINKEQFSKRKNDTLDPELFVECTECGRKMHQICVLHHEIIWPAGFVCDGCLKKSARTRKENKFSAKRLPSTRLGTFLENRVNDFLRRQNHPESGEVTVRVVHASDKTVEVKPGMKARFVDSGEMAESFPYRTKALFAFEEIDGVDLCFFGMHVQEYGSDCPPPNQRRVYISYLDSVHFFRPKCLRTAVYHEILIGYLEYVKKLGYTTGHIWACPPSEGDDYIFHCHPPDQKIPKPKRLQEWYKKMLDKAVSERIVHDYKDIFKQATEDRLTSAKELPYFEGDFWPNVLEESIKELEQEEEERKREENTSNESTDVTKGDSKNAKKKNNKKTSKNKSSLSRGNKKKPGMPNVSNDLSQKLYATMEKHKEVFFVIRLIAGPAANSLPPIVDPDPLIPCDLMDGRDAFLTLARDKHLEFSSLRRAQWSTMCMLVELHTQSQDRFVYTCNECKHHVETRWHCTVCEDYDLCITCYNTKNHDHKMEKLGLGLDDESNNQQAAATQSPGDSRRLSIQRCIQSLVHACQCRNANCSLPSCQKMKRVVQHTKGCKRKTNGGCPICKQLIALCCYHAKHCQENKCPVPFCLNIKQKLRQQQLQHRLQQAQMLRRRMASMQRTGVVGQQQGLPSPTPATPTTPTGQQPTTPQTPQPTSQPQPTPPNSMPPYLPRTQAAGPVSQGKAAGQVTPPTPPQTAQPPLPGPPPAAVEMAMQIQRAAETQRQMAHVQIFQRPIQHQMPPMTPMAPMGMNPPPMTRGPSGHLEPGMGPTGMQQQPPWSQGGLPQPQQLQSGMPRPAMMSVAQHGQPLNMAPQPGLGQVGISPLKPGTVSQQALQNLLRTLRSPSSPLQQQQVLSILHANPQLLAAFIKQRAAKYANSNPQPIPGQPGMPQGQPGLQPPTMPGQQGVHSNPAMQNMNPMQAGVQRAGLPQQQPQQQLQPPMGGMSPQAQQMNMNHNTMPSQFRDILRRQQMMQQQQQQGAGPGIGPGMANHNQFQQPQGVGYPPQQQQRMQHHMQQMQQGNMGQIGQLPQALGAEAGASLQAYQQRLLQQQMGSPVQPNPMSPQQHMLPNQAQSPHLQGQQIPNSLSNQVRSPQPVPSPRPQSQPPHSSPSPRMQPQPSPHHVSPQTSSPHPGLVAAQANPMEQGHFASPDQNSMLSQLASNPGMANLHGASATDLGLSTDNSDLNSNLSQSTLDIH

Measured: binding

Exogenous HAT1 (tagged, from human full-length cDNA) (from UniProt O14929 1-419) (enzyme)
not listed: [5]
binds: all other assays above

HA‐P300 (from UniProt Q09472 1-2414) (enzyme)
not listed: [5]
binds: all other assays above

B1: histone acetyltransferase 1 (HAT1), endogenous in mouse embryos (enzyme, UniProt Q8BY71 1-416)
chain: MAALEKFLVEYKSAVEKKLAEYKCNTNTAIELKLVRFPEDLENDIRTFFPEYTHQLFGDDETAFGYKGLKILLYYIAGSLSTLFRVEYSSKVDENFDCVEADDVEGKIRQIIPPGFCTNTNDFLSLLEKETNFKPFGTLLHTYTVPSQTGGETFTFQIHKADMTCRGFREYHERLQTFLMWFIETASFIDVDDERWHYFLVFEKYNKDGATLFATVGYMTVYNYYVYPDKTRPRVSQMLILTPFQGQGHGAQLLETVHRYYISFPTVLDITAEDPSRSYLKLRDFVLVKFCQFLPSFSRERLLQGFSEDMAIQAQQMFKINKQHARRVYEILRLLVTDMSDAEQYRSYRLDIKRRLISPYKKKQRDLAKMKKCLRPEELTNQMNQIEISVQHEQLEERFQELVEDYRRVIERLAQE
binds: [5]

Reference: article PMC12376542
